Test results: patent US20130171133A1
Results are given in words; binding and its absence hold for the method and conditions named. For part of these data: Binding seen in cells or lysates may run through a third protein.

How the values were obtained:
[1] = target: EGFR (from SK-OV-3 derived cell lysates) (UniProt P00533); experiment: co-IP
[2] = target: EGFR (from SK-OV-3 derived cell lysates) (UniProt P00533); experiment: immunoprecipitation
[3] = target: EGFR (from SK-OV-3 derived cell lysates) (UniProt P00533); experiment: co-IP, FIG. 2 legend
[4] = target: EGFR (from SK-OV-3 derived cell lysates) (UniProt P00533); experiment: FIG. 19 legend, restated
[5] = target: EGFR (from SK-OV-3 derived cell lysates) (UniProt P00533); experiment: restated in the text on degradation
[6] = target: EGFR (from SK-OV-3 derived cell lysates) (UniProt P00533); experiment: reciprocal co-IP, SK-OV-3 derived cell lysates

- binding [1]: no binding
- binding [2]: no binding
- binding [3]: no binding
- binding [4]: no binding
- binding [5]: no binding
- binding [6]: no binding
B1: OPCML (opioid binding protein cell adhesion molecule), human, expressed in cells (stably transfected SK-OV-3 lines BKS2.1 and SKOBS-3.5) (protein)
chain: GVPVRSGDATFPKAMDNVTVRQGESATLRCTIDDRVTRVAWLNRSTILYAGNDKWSIDPRVIILVNTPTQYSIMIQNVDVYDEGPYTCSVQTDNHPKTSRVHLIVQVPPQIMNISSDITVNEGSSVTLLCLAIGRPEPTVTWRHLSVKEGQGFVSEDEYLEISDIKRDQSGEYECSALNDVAAPDVRKVKITVNYPPYISKAKNTGVSVGQKGILSCEASAVPMAEFQWFKEETRLATGLDGMRIENKGRMSTLTFFNVSEKDYGNYTCVATNKLGNTNASITLYGPGAVIDGVN
modifications: GPI anchor at N322; N-linked glycosylation
